According to patent US12410220B2 (priority 2021, dated 2025):

Assay: peptide synthesis
Details: % yield by MS; for step yield: lipidation step; for conjugation yield: conjugation step

Substance | step yield [%] | conjugation yield
(dec)-KKGFYKKKQCRPSKGRKRGFCW | 98.0 | –
(h4p)-KKGFYKKKQCRPSKGRKRGFCW | – | 85.1%
(lau)-KKGFYKKKQCRPSKGRKRGFCW | 96.7 | –
(rg108)-KKGFYKKKQCRPSKGRKRGFCW (N-terminal RG108) | – | 74.3%@
(vlp)-KKGFYKKKQCRPSKGRKRGFCW | – | 84.9%
